{"source": "paper PMC3812221", "molecular_target": "outer envelope protein of molar mass 16 kDa (OEP16) (UniProt Q41050)", "assay": "NMR 15N relaxation (T1Z, T2; overall rotational correlation time); U-15N OEP16 in 0.4% SDS micelles, 20 mM NaH2PO4 pH 6.5, 100 mM NaCl, 310 K, 600 MHz; correlation time 12.5 ns against 18-19 ns expected for a dimer; both purified", "note": "Results are given in words; binding and its absence hold for the method and conditions named.", "data": [{"binder": "outer envelope protein of molar mass 16 kDa (OEP16) (protein, UniProt Q41050 1-146) MPRSSFSGSLSSPKLDVVIDMGNPFLNLTVDGFLKIGAVAATRSVAEDTFHIIRKGSISSNDFEKSLKKMCKEGAYWGAIAGVYVGMEYGVERIRGTRDWKNAMFGGAVTGALVSAASNNKKDKIAVDAITGAAIATAAEFINYLT", "values": [{"measurement": "binding", "value": "no binding (tested: 1.5 mM (typical 15N sample))"}]}]}
